In publication PMC5947990 one finds binding data, which are given here for 6 molecules.

The chains behind the UniProt entries cited, without tags or fusion partners.
UniProt P23198: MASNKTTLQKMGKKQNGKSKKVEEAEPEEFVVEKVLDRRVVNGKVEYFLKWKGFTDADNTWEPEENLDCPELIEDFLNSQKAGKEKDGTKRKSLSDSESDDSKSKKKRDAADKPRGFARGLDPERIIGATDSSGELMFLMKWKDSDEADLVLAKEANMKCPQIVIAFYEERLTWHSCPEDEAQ
UniProt Q6PDQ2: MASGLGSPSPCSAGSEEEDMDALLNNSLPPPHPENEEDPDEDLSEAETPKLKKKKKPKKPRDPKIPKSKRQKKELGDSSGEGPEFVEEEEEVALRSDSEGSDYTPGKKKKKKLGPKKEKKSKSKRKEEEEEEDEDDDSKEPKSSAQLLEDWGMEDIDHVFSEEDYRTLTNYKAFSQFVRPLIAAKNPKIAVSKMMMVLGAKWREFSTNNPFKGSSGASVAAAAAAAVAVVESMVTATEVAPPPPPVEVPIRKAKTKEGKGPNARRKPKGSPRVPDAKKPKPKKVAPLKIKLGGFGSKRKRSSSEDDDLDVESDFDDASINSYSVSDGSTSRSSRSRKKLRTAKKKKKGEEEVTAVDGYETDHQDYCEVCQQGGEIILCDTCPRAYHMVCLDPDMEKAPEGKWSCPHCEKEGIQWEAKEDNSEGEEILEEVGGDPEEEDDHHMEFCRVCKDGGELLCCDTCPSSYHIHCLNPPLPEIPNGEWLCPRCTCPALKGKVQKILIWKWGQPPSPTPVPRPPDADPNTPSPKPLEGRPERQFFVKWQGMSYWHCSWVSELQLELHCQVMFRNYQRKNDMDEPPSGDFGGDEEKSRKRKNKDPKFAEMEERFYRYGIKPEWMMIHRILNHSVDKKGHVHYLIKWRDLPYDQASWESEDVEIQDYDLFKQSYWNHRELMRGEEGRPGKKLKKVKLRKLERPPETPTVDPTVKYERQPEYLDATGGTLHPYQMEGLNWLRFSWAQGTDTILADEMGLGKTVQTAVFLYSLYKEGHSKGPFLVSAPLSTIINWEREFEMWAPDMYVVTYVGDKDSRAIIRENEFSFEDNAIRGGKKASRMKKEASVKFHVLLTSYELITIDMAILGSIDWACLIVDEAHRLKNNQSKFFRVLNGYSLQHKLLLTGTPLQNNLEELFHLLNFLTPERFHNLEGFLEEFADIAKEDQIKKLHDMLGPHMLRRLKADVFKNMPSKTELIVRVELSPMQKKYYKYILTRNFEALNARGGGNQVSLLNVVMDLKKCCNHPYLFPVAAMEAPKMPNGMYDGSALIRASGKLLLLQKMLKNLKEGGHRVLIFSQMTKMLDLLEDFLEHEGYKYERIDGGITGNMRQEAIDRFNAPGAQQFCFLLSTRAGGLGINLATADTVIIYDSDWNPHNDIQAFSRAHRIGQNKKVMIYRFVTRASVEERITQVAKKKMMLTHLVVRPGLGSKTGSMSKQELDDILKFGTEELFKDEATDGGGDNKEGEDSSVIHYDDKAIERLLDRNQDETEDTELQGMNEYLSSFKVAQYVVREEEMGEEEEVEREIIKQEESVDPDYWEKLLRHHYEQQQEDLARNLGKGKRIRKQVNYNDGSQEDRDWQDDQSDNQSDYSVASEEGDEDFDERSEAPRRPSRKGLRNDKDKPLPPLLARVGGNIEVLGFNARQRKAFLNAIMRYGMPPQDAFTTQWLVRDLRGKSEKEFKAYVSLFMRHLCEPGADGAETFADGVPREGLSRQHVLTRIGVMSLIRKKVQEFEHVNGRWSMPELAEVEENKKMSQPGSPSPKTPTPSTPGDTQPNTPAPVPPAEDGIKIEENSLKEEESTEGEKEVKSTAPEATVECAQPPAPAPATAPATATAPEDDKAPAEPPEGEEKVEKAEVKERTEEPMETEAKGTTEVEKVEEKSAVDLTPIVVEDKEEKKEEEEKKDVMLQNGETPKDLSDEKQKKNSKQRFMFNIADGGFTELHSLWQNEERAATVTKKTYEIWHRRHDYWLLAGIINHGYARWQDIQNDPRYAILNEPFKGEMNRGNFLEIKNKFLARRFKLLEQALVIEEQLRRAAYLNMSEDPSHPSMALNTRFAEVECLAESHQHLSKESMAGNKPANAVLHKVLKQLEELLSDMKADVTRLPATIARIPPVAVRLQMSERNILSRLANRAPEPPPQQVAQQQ
UniProt Q9JLV5: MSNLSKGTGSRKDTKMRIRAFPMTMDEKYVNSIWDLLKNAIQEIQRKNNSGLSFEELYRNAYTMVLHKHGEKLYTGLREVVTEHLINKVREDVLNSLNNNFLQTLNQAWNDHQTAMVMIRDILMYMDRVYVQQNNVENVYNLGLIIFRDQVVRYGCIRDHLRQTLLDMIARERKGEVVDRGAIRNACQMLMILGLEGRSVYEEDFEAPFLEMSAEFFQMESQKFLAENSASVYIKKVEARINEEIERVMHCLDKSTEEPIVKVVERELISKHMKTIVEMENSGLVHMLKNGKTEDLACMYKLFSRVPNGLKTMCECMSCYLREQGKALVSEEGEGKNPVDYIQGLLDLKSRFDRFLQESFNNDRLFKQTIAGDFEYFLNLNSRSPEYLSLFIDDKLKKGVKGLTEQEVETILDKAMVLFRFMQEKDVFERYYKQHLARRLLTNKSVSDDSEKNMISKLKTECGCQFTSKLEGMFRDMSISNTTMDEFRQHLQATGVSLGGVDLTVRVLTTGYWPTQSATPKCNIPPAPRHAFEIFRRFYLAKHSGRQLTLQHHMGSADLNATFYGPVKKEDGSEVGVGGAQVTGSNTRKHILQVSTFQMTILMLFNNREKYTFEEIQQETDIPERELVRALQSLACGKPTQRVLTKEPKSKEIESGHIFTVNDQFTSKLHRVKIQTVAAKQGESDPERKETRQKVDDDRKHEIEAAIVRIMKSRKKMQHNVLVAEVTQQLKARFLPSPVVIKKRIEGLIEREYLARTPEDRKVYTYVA
UniProt Q3TKT4: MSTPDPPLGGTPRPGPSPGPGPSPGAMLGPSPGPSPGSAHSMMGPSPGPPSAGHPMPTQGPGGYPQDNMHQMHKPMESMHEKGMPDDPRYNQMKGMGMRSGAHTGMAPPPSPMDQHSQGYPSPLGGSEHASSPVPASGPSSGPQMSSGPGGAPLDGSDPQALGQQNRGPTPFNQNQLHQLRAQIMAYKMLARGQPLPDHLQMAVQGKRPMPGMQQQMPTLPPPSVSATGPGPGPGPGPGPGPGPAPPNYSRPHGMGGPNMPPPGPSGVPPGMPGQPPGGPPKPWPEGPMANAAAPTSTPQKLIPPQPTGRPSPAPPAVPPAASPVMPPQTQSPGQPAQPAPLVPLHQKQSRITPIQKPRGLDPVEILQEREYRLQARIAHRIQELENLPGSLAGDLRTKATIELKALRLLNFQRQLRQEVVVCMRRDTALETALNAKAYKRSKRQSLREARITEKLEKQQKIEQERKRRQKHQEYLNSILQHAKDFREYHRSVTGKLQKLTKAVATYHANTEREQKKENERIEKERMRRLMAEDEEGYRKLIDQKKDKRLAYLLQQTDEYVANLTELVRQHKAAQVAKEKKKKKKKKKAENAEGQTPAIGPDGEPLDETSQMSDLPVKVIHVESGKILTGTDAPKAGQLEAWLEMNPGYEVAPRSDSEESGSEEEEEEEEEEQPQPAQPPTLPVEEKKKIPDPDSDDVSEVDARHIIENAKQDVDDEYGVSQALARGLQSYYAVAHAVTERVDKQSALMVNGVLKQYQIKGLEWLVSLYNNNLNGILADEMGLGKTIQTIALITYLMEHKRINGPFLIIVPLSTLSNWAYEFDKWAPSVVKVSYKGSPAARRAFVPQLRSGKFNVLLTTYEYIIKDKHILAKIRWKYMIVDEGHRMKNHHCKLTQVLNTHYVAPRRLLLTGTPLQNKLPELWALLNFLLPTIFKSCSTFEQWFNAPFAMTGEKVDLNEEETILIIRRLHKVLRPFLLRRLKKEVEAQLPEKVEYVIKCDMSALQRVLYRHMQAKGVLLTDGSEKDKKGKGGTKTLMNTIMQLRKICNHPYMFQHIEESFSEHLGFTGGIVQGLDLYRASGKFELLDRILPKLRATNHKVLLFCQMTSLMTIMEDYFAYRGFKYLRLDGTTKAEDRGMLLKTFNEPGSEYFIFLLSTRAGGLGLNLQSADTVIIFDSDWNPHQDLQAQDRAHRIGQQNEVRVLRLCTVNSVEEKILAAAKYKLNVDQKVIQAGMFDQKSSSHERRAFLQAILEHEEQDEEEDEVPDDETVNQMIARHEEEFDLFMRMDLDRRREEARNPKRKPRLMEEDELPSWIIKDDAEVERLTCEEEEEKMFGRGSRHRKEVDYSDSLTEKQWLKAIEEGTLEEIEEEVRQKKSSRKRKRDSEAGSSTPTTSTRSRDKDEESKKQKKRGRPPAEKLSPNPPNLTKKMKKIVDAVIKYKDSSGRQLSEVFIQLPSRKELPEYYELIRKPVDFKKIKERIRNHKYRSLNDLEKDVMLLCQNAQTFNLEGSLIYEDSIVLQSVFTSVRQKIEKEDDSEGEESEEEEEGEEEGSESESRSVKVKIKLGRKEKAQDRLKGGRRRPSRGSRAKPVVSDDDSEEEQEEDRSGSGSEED

Results are given in words; binding and its absence hold for the method and conditions named. In cells and extracts the contact can be indirect. A yes stands for co-enrichment or nearness to the bait. Other partners may have been found. Sequences can lack the tags named with a protein.

The test addresses T1, Olig2-V5 fusion protein (endogenously V5-tagged Olig2) (mouse (endogenous in GNS cells)) (UniProt Q9EQW6).
T1 sequence: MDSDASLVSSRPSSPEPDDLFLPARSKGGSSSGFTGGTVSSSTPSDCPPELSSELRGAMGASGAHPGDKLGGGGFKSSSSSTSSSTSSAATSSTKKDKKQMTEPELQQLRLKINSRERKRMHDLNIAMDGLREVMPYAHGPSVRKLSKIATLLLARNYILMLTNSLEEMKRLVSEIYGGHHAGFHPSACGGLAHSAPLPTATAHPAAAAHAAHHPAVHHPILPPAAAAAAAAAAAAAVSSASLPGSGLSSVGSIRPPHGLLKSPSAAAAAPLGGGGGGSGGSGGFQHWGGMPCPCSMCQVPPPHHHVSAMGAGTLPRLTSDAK
The experiment in a line: affinity purification with mass spectrometry; ChIP-SICAP, flow-through of the streptavidin enrichment after anti-V5 immunoprecipitation: interactions with soluble (off-chromatin) Olig2.

Regarding Cbx3 (from UniProt P23198 1-183), the binding result is “binds”. For Chd4 (from UniProt Q6PDQ2 1-1915) the value was “binds”; for Cul3 (from UniProt Q9JLV5 1-768), “binds”; for Smarca4 (from UniProt Q3TKT4 1-1613), “binds”.

B1: Olig1 (protein, UniProt Q9JKN5 1-260)
chain: MYYAISQARVNAAPATMLRPQRPGDVQLGASLYELVGYRQPPISSSSSSSSSTASLLPKPAREKAEAPLAEPRGPAPESGGARADAKEEQQQQQLRRKINSRERKRMQDLNLAMDALREVILPYSAAHCQGAPGRKLSKIATLLLARNYILLLGSSLQELRRALGDGAGPAAPRLLLAGLPLLAAAPGSVLLAPGAVGPPETLRPTKYLSLALDEPPCGQFSLPAGGAGSPGLCSCAVCKFPHLVPAGLGLAAVQAQFSK
Regarding B1, the binding result was “binds”.

B2: Olig3 (protein, UniProt Q6PFG8 1-273)
chain: MNSDSSSVSSRASSPDMDEMYLRDHHHRHHHHHQESRLNSVSSTQGDMVQKMPGESLSRAGAKAAGESSKYKIKKQLSEQDLQQLRLKINGRERKRMHDLNLAMDGLREVMPYAHGPSVRKLSKIATLLLARNYILMLTSSLEEMKRLVGEIYGGHHSAFHCGTVGHSAGHPAHAANAVHPVHPILGGALSSGNASSPLSATSLPTIGTIRPPHSLLKAPSTPPALQLGSGFQHWAGLPCPCTICQMPPPPHLSALSTANMARLSAESKDLLK
With B2, the binding entry is reported as “binds”.
